From paper PMC5007559
No constants are given. Whether binding was seen depends on the method and setting. Binding seen in cells or lysates may run through a third protein. Sequences can lack the tags named with a protein.

By UniProt entry, the sequences of proteins in these tests, tags left out. Where a name states a change or a piece, a line headed by the entry shows the natural chain unless it says otherwise.
UniProt P35637, whole entry: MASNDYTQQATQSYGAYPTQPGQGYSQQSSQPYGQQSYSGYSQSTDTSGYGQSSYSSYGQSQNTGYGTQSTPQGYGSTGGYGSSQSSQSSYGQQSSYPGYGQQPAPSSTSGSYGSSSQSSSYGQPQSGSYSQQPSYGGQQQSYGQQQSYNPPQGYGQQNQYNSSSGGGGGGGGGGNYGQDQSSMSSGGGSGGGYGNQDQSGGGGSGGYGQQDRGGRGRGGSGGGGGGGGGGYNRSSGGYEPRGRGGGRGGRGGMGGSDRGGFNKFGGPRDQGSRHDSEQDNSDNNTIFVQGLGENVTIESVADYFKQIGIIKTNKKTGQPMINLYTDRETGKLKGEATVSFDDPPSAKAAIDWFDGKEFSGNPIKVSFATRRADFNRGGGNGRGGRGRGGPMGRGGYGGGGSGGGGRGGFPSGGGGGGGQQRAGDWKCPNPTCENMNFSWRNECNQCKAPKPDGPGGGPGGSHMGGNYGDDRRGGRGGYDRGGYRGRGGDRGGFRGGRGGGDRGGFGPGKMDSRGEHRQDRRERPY

Target: T1, haemagglutinin (HA)-tagged PTPIP51 (UniProt Q96TC7)
T1 sequence: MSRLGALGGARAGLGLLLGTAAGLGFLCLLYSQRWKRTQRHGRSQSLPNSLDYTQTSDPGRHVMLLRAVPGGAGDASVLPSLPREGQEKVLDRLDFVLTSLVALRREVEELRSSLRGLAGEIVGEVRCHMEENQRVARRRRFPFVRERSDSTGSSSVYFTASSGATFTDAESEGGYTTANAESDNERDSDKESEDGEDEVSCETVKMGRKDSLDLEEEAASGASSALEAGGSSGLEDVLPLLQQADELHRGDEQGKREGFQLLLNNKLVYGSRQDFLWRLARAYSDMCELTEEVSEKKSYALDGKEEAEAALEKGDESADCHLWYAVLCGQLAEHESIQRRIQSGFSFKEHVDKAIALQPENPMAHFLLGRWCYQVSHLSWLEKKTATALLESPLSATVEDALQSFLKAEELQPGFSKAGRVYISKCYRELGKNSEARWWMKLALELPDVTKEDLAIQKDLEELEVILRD
Assay: co-IP; HEK293 cells transfected with HA-PTPIP51 and HA-FUS (wild type, R521C or R518K); PTPIP51 immunoprecipitated with rat anti-PTPIP51, FUS probed with rabbit FUS antibody; 50 mM Tris-citrate pH 7.4, 150 mM NaCl, 1% Triton X-100, 5 mM EGTA, 5 mM EDTA, 4 C

Substance | binding
HA-tagged familial ALS mutant FUS R518K (from UniProt P35637 1-526) | no binding
HA-tagged familial ALS mutant FUS R521C (from UniProt P35637 1-526) | no binding
HA-tagged wild-type FUS (fused in sarcoma) (from UniProt P35637 1-526) | no binding
